Laboratory results from PubChem BioAssay AID1347131 (National Center for Advancing Translational Sciences (NCATS), 2019).
The campaign covered roughly 410,000 compounds. About 2,000 (0.49%) were called active. The inconclusive results got no clear call from the source; some entries with a clear call stand among them for comparison. The call rests on the fitted dose curve; tested in HEK293 reporter line. Where the call is inconclusive, the potency comes from a doubtful curve fit.

Test: qHTS Assay for Foot and Mouth Disease Virus Antivirals: Primary Screen against the MLPCN compound library; further: nearly all actives have a fitted effect of over 55% in size
Settings: FMDV antiviral cell-based qHTS; activity, negative = inhibition: at 57.9 µM (top of the series)
Potency means the concentration at half of the fitted maximal effect.

Compound	Potency	activity, negative = inhibition
CC(=O)c1cc(-c2ccccc2)n(CC(=O)NCCc2ccc(C)cc2)c1C	inconclusive: 4.47 µM [inhibitor, full curve]	
Cc1ccccc1Oc1cc(-n2ncc(Cl)c(Cl)c2=O)ncn1	inconclusive: 4.47 µM [inhibitor, full curve, poor fit]	
CCOc1ccc(C(=O)Nc2cccc(C(=O)O)c2C)cc1Cl	inconclusive: 1.78 µM [inhibitor, full curve, poor fit]	
CC(C)C(=O)Nc1cccc(COc2ccc(CN(Cc3ccccc3)C(=O)OC(C)(C)C)cc2)c1	inconclusive: 11.2 µM [inhibitor, partial curve, poor fit]	
CC(=O)N1N=C(c2ccccc2)CC1c1cn(Cc2ccccc2)c2ccccc12 (stereo unspecified)	inconclusive: 31.6 µM [inhibitor, partial curve, poor fit]	
Cc1cccc(-c2cccc(NC(=O)C3CCCN(C(=O)c4cccnc4)C3)c2)c1 (stereo unspecified)	inconclusive: 12.6 µM [inhibitor, partial curve]	
CCc1ccc(Nc2n[n+](-c3ccccc3)c(-c3c(Cl)cccc3Cl)s2)cc1	inconclusive: 28.2 µM [inhibitor, partial curve, poor fit]	
CC(=O)c1c(C(C)=O)c(C)n(-c2nc(-c3cccs3)c(C)s2)c1C	inconclusive: 22.4 µM [inhibitor, partial curve, poor fit]	
CCCCCC(=O)Nc1nc(C)c(-c2csc(Nc3cc(OC)ccc3OC)n2)s1	inconclusive: 14.1 µM [inhibitor, partial curve]	
CC(C)(C)C(=O)Nc1ccc(-c2nc3ccccc3s2)cc1	inactive	
C/C1=C\[C@@H](C)C/C=C/[C@H]2[C@@H]3O[C@]3(C)[C@@H](C)[C@H]3[C@H](Cc4c[nH]c5ccccc45)NC(=O)[C@]32C(=O)/C=C/C(=O)[C@@H]1O	inconclusive: 31.6 µM [inhibitor, partial curve, poor fit]	
Cc1ccc(Cl)cc1-c1cc(C(=O)NCc2cc(C(F)(F)F)cc(C(F)(F)F)c2)[nH]n1	inconclusive: 39.8 µM [inhibitor, partial curve, poor fit]	
Cn1cc(C(=O)c2ccc(Cl)cc2Cl)cc1C(=O)N/N=C(\N)COc1ccccc1	inconclusive: 22.4 µM [inhibitor, partial curve]	
O=C(NNC(=S)Nc1ccc(C(=O)O)c(O)c1)c1ccncc1	inconclusive: 12.6 µM [inhibitor, partial curve, poor fit]	
O=C(/C=C/c1cccs1)Nc1nc(-c2ccccc2)cs1	inconclusive: 39.8 µM [inhibitor, single point]	
Cc1ccc(NC(=O)c2ccc3c(c2)OCCO3)nc1	inconclusive: 15.8 µM [inhibitor, partial curve, poor fit]	
Cc1ccccc1C(O)(Cc1ccccc1)C1CN2CCC1CC2 (stereo unspecified)	inconclusive: 14.1 µM [inhibitor, partial curve, poor fit]	
Cc1cc(C(F)(F)F)nc(SCC(=O)c2cccc([N+](=O)[O-])c2)n1	inconclusive: 17.8 µM [inhibitor, single point]	

Compound	Potency	activity, negative = inhibition
CC1=NOC(=O)/C1=C\c1ccc(-c2cccc(Cl)c2)o1	inconclusive: 39.8 µM [inhibitor, partial curve, poor fit]	
CCOC(=O)N1CCN(c2ncc3c(n2)CC(c2ccc(OC)c(OC)c2)CC3=O)CC1 (stereo unspecified)	inconclusive: 14.1 µM [inhibitor, partial curve, poor fit]	
O=C(Nc1ccsc1C(=O)O)c1cccc(Oc2ccccc2)c1	inconclusive: 12.6 µM [inhibitor, single point]	
O=c1nc2ccccc2c2n1CC(CN1CCN(c3ccc(F)cc3)CC1)N2 (stereo unspecified)		inconclusive: -36% [inhibitor]
Cc1ccccc1Nc1nc(N)c2ccccc2n1	inconclusive: 17.8 µM [inhibitor, single point]	
COc1ccc(S(=O)(=O)NCC2CCCN(Cc3ccccc3C)C2)cc1 (stereo unspecified)	inconclusive: 4.47 µM [inhibitor, partial curve]	
CCC(C)(C)c1ccc(OCCCC[n+]2cccc(C)c2)c(C(C)(C)CC)c1	inconclusive: 31.6 µM [inhibitor, partial curve, poor fit]	
COCCN(CC(=O)NC1CCCCC1)C(=O)/C=C/C(=O)c1ccc(OC)cc1O	inconclusive: 3.16 µM [inhibitor, partial curve, poor fit]	
COc1ccc(CNC(=O)C2CCCN(S(=O)(=O)N(C)c3ccc(F)cc3)C2)cc1OC (stereo unspecified)	inconclusive: 12.6 µM [inhibitor, partial curve, poor fit]	
Cc1ccc(CSCC(=O)N(C)CC(=O)Nc2c(Cl)cccc2Cl)cc1	inactive	
O=C(c1cccc(C(F)(F)F)c1)N1CCOc2ccccc21	inconclusive: 2.24 µM [inhibitor, full curve]	
CC(=O)N1CCc2c(sc3c2c(=O)n(-c2cccc(Cl)c2C)c(=O)n3Cc2ccccc2C)C1	inconclusive: 7.08 µM [inhibitor, partial curve]	
O=C(CCCCn1c(=O)[nH]c2ccsc2c1=O)N1CCN(c2cccc(C(F)(F)F)c2)CC1	inconclusive: 39.8 µM [inhibitor, partial curve, poor fit]	
O=C(NC12CC3CC(CC(C3)C1)C2)c1cc(F)c(F)c(F)c1F	inconclusive: 35.5 µM [inhibitor, partial curve, poor fit]	
O=C(c1ccc(S(=O)(=O)N2CCOCC2)cc1)N(Cc1ccco1)Cc1cccs1	inconclusive: 11.2 µM [inhibitor, partial curve]	
CC(=O)CSc1cc(-c2ccccc2)nc2ncnn12	inconclusive: 8.91 µM [inhibitor, partial curve, poor fit]	
O=C(/C=C/c1ccco1)N1CCc2ccccc21	inconclusive: 22.4 µM [inhibitor, single point]	
Cc1cc(F)ccc1S(=O)(=O)N1CCCOC1CNC(=O)C(=O)NCCc1c[nH]c2ccccc12 (stereo unspecified)	inconclusive: 31.6 µM [inhibitor, partial curve, poor fit]	

Single entries from the results shown:
In Potency, `CC(C)C(=O)Nc1cccc(COc2ccc(CN(Cc3ccccc3)C(=O)OC(C)(C)C)cc2)c1` shows inconclusive: 11.2 µM [inhibitor, partial curve, poor fit]
In Potency, `Cc1cc(F)ccc1S(=O)(=O)N1CCCOC1CNC(=O)C(=O)NCCc1c[nH]c2ccccc12` (stereo unspecified) shows inconclusive: 31.6 µM [inhibitor, partial curve, poor fit]
